# From article PMC3759449
# The chains behind the UniProt entries cited, without tags or fusion partners. Residues count along the entry.
# UniProt Q810U4, residues 30-1256: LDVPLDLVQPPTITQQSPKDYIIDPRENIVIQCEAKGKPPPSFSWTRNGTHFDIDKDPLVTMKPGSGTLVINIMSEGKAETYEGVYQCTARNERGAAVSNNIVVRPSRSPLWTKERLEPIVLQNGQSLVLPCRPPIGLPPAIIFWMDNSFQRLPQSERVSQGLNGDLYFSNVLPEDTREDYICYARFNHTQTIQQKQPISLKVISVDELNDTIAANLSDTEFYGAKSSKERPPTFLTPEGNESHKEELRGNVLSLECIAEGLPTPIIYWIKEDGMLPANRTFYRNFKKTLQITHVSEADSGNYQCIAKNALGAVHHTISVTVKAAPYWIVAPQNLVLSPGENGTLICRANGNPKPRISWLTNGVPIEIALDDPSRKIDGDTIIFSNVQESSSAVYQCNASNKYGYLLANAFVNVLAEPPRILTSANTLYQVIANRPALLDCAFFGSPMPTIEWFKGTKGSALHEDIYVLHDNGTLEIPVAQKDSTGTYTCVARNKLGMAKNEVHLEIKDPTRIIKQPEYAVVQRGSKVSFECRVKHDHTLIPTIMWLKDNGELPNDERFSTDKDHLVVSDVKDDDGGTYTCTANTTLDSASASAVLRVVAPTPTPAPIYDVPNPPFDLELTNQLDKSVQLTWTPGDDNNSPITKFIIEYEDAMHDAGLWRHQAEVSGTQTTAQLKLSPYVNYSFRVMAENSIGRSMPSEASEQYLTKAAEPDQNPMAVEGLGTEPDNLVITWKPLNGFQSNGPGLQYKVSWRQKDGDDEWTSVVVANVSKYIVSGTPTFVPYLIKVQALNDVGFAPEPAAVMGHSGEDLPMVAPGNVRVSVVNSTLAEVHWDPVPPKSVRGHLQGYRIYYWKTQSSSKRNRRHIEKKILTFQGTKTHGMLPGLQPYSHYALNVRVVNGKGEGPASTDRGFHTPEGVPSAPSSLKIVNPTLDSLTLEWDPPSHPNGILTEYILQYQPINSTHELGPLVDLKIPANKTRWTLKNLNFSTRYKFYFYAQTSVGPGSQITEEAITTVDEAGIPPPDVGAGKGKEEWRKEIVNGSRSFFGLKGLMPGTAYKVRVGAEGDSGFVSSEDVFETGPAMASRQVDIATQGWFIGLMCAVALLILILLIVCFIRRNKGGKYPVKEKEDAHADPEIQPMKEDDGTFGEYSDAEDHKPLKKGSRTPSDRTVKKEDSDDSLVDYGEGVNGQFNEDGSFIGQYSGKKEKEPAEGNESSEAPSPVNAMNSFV
# UniProt P54763, residues 19-986: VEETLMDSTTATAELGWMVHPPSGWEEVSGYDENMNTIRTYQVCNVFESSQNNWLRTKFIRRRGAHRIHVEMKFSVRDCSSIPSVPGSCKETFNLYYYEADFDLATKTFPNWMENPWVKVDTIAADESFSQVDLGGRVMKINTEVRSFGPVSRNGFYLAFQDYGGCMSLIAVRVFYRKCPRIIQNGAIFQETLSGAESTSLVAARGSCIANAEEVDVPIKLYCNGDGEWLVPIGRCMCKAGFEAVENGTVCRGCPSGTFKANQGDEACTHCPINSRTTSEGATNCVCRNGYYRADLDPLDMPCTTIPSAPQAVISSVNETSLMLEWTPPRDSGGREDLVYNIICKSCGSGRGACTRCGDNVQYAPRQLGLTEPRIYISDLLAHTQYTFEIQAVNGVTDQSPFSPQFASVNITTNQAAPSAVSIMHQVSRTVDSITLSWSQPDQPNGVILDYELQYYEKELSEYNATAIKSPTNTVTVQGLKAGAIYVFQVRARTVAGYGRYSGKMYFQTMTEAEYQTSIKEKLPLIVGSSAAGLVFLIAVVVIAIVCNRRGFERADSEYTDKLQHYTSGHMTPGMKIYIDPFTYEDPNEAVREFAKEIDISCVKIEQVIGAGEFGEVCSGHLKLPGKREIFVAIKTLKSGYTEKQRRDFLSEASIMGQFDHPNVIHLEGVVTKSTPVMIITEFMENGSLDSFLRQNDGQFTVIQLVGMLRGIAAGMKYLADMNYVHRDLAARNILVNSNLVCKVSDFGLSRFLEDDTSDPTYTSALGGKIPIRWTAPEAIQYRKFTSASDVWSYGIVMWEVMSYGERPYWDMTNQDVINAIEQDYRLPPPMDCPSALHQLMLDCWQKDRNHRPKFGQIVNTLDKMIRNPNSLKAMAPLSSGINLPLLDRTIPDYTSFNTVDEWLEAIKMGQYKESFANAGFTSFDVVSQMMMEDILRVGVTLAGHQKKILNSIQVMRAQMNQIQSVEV
# UniProt P54754, residues 30-993: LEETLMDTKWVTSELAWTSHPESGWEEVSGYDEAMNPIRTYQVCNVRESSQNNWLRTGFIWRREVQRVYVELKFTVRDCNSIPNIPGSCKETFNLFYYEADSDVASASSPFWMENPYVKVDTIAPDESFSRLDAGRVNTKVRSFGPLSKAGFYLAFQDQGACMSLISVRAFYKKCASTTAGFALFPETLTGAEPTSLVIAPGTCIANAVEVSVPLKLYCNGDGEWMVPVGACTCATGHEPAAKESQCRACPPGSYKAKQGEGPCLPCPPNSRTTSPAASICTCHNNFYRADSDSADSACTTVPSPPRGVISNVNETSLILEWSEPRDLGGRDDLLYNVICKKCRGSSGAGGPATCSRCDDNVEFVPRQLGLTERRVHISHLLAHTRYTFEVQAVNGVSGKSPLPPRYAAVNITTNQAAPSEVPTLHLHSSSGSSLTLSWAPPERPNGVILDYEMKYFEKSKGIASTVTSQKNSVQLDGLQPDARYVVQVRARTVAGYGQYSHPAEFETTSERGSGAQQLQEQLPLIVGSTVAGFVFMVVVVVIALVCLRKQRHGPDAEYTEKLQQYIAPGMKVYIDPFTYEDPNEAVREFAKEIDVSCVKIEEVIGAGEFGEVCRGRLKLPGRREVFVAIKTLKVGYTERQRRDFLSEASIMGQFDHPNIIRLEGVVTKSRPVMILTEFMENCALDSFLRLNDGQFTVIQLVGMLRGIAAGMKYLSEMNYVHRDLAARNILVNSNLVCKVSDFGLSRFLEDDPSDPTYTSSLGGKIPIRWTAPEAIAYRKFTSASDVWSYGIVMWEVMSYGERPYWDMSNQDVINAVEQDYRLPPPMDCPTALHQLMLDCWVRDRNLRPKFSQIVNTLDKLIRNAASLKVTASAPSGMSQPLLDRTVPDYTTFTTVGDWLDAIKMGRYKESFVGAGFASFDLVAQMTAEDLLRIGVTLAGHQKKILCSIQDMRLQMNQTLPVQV
# UniProt Q8CBF3, residues 18-984: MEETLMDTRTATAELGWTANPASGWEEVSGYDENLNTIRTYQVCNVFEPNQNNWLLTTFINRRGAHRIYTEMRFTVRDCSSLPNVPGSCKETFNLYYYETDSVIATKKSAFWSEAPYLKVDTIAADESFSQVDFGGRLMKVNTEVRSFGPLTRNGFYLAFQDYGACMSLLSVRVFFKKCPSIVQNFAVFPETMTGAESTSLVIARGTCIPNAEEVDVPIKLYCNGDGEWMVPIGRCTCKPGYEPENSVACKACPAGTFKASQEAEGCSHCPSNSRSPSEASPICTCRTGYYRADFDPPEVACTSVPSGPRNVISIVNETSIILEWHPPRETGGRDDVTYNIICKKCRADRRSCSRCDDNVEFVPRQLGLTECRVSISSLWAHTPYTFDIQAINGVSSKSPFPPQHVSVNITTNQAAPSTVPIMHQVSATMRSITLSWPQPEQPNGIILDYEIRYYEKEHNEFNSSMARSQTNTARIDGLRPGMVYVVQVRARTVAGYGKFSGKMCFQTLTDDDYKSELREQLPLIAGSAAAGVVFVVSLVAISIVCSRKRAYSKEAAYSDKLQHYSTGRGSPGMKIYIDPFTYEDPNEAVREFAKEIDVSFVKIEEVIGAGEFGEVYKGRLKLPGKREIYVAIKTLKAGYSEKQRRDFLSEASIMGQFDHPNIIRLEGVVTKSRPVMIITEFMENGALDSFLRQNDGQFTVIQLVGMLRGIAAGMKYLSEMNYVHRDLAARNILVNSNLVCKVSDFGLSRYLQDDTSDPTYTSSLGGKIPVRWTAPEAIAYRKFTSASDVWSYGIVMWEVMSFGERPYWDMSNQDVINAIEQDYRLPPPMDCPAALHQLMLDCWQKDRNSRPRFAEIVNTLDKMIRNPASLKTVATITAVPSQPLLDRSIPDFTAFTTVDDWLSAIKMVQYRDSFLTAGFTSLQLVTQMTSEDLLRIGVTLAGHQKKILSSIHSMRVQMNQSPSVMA
# These are yes or no findings as the source states them, for the method shown. Binding seen in cells or lysates may run through a third protein. Some results given as binding are weak or reduced against the parent protein; the word gives no strength.
# Target: NrCAM (Neuron-glial related cell adhesion molecule), mouse (mouse) (UniProt Q810U4)
# Assay: co-IP; RIPA lysates (500 ug) of co-transfected HEK293T cells immunoprecipitated with rabbit anti-NrCAM (Abcam ab24344) for 2 h at 4°C, protein A/G-Sepharose, RIPA washes; blots reprobed with anti-EphB2 or anti-HA
row,binding,Substance
1,binds,EphB2 (not HA-tagged) (from UniProt P54763 19-986) (receptor)
2,binds,"EphB3 with HA tag, mouse (from UniProt P54754 30-993) (receptor)"

row,Substance,binding
1,"EphB1 with a hemagglutinin epitope (HA) tag, mouse (from UniProt Q8CBF3 18-984) (receptor)",binds
